Article PMC11387718
These are yes or no findings as the source states them, for the method shown. Binding seen in cells or lysates may run through a third protein. A yes stands for co-enrichment or nearness to the bait. Other partners may have been found. A no says only that the protein was not detected with the bait.

The chains behind the UniProt entries cited, without tags or fusion partners. Residues count along the entry.
UniProt Q922H1: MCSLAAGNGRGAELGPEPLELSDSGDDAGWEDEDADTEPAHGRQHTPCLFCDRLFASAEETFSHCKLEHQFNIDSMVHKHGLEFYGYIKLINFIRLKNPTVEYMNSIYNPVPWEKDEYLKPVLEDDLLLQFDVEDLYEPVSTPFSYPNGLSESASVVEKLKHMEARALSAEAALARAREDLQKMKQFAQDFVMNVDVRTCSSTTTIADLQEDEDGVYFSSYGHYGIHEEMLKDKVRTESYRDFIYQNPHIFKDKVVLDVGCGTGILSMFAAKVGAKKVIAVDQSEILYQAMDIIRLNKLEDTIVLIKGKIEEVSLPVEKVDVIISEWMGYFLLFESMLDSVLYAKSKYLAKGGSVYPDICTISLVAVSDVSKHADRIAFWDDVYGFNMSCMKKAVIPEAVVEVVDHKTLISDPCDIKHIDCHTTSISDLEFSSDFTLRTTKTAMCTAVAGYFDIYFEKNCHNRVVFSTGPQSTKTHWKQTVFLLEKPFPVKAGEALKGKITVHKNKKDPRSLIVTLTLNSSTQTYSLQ
UniProt P09103, residues 20-509: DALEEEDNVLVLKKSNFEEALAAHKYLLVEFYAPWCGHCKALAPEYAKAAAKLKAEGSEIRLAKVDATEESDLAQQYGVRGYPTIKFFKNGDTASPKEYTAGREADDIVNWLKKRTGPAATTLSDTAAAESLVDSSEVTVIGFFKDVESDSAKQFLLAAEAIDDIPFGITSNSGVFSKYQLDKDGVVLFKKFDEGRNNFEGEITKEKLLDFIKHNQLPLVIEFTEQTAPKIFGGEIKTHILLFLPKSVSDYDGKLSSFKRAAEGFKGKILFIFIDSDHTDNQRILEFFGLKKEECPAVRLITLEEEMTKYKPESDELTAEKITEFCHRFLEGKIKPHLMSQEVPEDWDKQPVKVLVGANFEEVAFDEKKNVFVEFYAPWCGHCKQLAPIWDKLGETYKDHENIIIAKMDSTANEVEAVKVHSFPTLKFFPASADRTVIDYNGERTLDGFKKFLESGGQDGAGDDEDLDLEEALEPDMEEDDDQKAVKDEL
UniProt P27773, residues 25-505: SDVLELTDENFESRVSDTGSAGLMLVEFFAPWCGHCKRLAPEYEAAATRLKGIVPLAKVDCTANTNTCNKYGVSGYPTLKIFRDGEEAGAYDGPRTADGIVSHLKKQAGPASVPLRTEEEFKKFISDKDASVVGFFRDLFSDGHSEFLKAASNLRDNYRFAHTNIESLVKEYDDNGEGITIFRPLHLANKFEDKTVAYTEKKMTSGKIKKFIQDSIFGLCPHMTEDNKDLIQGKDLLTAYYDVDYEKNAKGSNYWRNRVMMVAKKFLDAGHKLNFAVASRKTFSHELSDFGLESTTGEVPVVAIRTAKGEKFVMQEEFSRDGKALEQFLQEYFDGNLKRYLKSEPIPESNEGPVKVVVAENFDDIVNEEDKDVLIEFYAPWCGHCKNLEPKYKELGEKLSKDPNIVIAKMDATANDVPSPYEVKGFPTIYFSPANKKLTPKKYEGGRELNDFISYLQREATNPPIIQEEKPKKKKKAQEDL
UniProt P20029, residues 20-655: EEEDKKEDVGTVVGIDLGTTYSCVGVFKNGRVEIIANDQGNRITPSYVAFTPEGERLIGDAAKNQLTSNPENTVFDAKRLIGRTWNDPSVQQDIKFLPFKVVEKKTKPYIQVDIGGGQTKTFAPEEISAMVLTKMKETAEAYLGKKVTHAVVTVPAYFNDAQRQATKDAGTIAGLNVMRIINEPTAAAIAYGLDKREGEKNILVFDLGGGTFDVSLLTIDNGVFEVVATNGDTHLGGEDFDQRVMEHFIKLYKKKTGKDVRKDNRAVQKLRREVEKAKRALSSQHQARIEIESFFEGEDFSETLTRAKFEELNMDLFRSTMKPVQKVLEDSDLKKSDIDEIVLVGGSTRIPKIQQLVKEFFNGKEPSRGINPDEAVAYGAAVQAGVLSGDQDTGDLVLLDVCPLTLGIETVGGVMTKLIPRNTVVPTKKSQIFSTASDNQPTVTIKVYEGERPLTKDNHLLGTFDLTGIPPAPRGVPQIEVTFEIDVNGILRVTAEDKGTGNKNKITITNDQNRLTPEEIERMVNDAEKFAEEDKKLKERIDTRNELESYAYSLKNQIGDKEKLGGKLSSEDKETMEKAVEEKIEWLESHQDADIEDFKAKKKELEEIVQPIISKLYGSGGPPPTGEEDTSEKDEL

B1: CCT8, mouse, in Hepa1-6 cells (protein, UniProt P42932 1-548)
chain: MALHVPKAPGFAQMLKDGAKHFSGLEEAVYRNIQACKELAQTTRTAYGPNGMNKMVINRLEKLFVTNDAATILRELEVQHPAAKMIVMASHMQEQEVGDGTNFVLVFAGALLELAEELLRIGLSVSEVISGYEIACKKAHEILPELVCCSAKNLRDVDEVSSLLRTSIMSKQYGSETFLAKLIAQACVSIFPDSGNFNVDNIRVCKILGSGIYSSSVLHGMVFKKETEGDVTSVKDAKIAVYSCPFDGMITETKGTVLIKTAEELMNFSKGEENLMDAQVKAIAGTGANVIVTGGKVADIALHYANKYNIMLVRLNSKWDLRRLCKTVGATALPKLTPPVQEEMGHCDSVYLSEVGDTQVVVFKHEKEDGAISTIVLRGSTDNLMDDIERAVDDGVNTFKVLTRDKRLVPGGGATEIELAKQITSYGETCPGLEQYAIKKFAEAFEAIPRALAENSGVKANEVISKLYSVHQEGNKNVGLDIEAEVPAVKDMLEASILDTYLGKYWAIKLATNAAVTVLRVDQIIMAKPAGGPKPPSGKKDWDDDQND
B2: RIG-I, mouse, in Hepa1-6 cells (protein, UniProt Q6Q899 1-926)
chain: MTAEQRQNLQAFRDYIKKILDPTYILSYMSSWLEDEEVQYIQAEKNNKGPMEAASLFLQYLLKLQSEGWFQAFLDALYHAGYCGLCEAIESWDFQKIEKLEEHRLLLRRLEPEFKATVDPNDILSELSECLINQECEEIRQIRDTKGRMAGAEKMAECLIRSDKENWPKVLQLALEKDNSKFSELWIVDKGFKRAESKADEDDGAEASSIQIFIQEEPECQNLSQNPGPPSEASSNNLHSPLKPRNYQLELALPAKKGKNTIICAPTGCGKTFVSLLICEHHLKKFPCGQKGKVVFFANQIPVYEQQATVFSRYFERLGYNIASISGATSDSVSVQHIIEDNDIIILTPQILVNNLNNGAIPSLSVFTLMIFDECHNTSKNHPYNQIMFRYLDHKLGESRDPLPQVVGLTASVGVGDAKTAEEAMQHICKLCAALDASVIATVRDNVAELEQVVYKPQKISRKVASRTSNTFKCIISQLMKETEKLAKDVSEELGKLFQIQNREFGTQKYEQWIVGVHKACSVFQMADKEEESRVCKALFLYTSHLRKYNDALIISEDAQMTDALNYLKAFFHDVREAAFDETERELTRRFEEKLEELEKVSRDPSNENPKLRDLYLVLQEEYHLKPETKTILFVKTRALVDALKKWIEENPALSFLKPGILTGRGRTNRATGMTLPAQKCVLEAFRASGDNNILIATSVADEGIDIAECNLVILYEYVGNVIKMIQTRGRGRARDSKCFLLTSSADVIEKEKANMIKEKIMNESILRLQTWDEMKFGKTVHRIQVNEKLLRDSQHKPQPVPDKENKKLLCGKCKNFACYTADIRVVETSHYTVLGDAFKERFVCKPHPKPKIYDNFEKKAKIFCAKQNCSHDWGIFVRYKTFEIPVIKIESFVVEDIVSGVQNRHSKWKDFHFERIQFDPAEMSV
B3: MDA5, mouse, in Hepa1-6 cells (protein, UniProt Q8R5F7 1-1025)
chain: MSIVCSAEDSFRNLILFFRPRLKMYIQVEPVLDHLIFLSAETKEQILKKINTCGNTSAAELLLSTLEQGQWPLGWTQMFVEALEHSGNPLAARYVKPTLTDLPSPSSETAHDECLHLLTLLQPTLVDKLLINDVLDTCFEKGLLTVEDRNRISAAGNSGNESGVRELLRRIVQKENWFSTFLDVLRQTGNDALFQELTGGGCPEDNTDLANSSHRDGPAANECLLPAVDESSLETEAWNVDDILPEASCTDSSVTTESDTSLAEGSVSCFDESLGHNSNMGRDSGTMGSDSDESVIQTKRVSPEPELQLRPYQMEVAQPALDGKNIIICLPTGSGKTRVAVYITKDHLDKKKQASESGKVIVLVNKVMLAEQLFRKEFNPYLKKWYRIIGLSGDTQLKISFPEVVKSYDVIISTAQILENSLLNLESGDDDGVQLSDFSLIIIDECHHTNKEAVYNNIMRRYLKQKLRNNDLKKQNKPAIPLPQILGLTASPGVGAAKKQSEAEKHILNICANLDAFTIKTVKENLGQLKHQIKEPCKKFVIADDTRENPFKEKLLEIMASIQTYCQKSPMSDFGTQHYEQWAIQMEKKAAKDGNRKDRVCAEHLRKYNEALQINDTIRMIDAYSHLETFYTDEKEKKFAVLNDSDKSDDEASSCNDQLKGDVKKSLKLDETDEFLMNLFFDNKKMLKKLAENPKYENEKLIKLRNTILEQFTRSEESSRGIIFTKTRQSTYALSQWIMENAKFAEVGVKAHHLIGAGHSSEVKPMTQTEQKEVISKFRTGEINLLIATTVAEEGLDIKECNIVIRYGLVTNEIAMVQARGRARADESTYVLVTSSGSGVTEREIVNDFREKMMYKAINRVQNMKPEEYAHKILELQVQSILEKKMKVKRSIAKQYNDNPSLITLLCKNCSMLVCSGENIHVIEKMHHVNMTPEFKGLYIVRENKALQKKFADYQTNGEIICKCGQAWGTMMVHKGLDLPCLKIRNFVVNFKNNSPKKQYKKWVELPIRFPDLDYSEYCLYSDED

Target: protein arginine methyltransferase 3 (PRMT3), mouse, in Hepa1-6 cells (mouse (endogenous in Hepa1-6)) (UniProt Q922H1)
Assay: affinity purification with mass spectrometry; IP of PRMT3 from Hepa1-6 cell lysate (IP lysis buffer, antibody overnight at 4 °C, protein A/G agarose beads), LC-MS of the eluted peptides

Molecule	binding
P4HB, mouse, in Hepa1-6 cells (from UniProt P09103 20-509)	binds
PDIA3, mouse, in Hepa1-6 cells (from UniProt P27773 25-505)	binds
HSPA5, mouse, in Hepa1-6 cells (from UniProt P20029 20-655)	binds
B1	binds
B2	no binding
B3	no binding
